Experimental findings from paper PMC3668167, “Ski-interacting protein (SKIP) interacts with androgen receptor in the nucleus and modulates androgen-dependent transcription” (BMC Biochemistry, 2013) are described below.

By UniProt entry, the sequences of proteins in these tests, tags left out.
UniProt P10275: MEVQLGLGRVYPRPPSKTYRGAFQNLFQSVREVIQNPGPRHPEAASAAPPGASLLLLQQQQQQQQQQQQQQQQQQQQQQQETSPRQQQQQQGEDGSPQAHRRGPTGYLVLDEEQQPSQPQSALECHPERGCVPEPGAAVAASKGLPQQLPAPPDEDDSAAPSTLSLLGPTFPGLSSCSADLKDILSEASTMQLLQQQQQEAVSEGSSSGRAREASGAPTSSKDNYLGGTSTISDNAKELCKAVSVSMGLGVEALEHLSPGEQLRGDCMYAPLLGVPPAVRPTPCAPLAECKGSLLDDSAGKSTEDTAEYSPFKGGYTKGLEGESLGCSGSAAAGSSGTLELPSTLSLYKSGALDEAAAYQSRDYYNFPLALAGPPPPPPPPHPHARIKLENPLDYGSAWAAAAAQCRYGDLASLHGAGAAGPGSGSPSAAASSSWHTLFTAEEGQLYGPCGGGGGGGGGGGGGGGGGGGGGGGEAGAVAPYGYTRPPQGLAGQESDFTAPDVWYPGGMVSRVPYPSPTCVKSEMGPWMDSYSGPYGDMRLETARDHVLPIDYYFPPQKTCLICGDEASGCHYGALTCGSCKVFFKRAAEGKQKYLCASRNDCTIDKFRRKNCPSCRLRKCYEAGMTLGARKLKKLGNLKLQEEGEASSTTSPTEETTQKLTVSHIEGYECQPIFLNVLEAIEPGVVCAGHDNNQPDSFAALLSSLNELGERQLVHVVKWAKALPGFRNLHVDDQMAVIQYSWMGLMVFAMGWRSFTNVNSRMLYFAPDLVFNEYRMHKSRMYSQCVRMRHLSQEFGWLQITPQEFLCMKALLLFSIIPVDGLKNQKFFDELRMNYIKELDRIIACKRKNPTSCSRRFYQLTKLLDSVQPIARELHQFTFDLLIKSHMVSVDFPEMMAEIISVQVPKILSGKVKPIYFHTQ

Assay [1] deals with T1, EYFP-SKIP (human Skip cDNA in pEYFP-C1) (human) (UniProt Q13573).
T1 sequence: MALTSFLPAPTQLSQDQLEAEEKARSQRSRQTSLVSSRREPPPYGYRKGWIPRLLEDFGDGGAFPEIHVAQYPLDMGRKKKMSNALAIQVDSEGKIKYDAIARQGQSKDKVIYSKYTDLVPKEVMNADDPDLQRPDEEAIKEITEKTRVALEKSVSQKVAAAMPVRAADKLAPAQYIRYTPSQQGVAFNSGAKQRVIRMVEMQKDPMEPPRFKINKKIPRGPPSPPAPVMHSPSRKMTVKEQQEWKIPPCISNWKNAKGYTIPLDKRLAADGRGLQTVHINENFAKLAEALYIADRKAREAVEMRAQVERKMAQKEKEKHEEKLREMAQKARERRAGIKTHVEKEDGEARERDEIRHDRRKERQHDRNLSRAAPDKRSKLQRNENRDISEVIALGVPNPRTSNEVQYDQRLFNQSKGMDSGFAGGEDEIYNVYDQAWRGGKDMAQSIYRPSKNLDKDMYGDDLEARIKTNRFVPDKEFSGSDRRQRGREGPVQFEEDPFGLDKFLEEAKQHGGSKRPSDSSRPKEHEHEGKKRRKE
Briefly: FRET or BRET; sensitised acceptor emission FRET imaging (FRET2 index), confocal time series of live serum-starved BHK cells stimulated with 10 nM DHT.

Assay [2] addresses T2, HA-tagged Ski-interacting protein (SKIP-pCGN) (human) (UniProt Q13573).
T2 sequence: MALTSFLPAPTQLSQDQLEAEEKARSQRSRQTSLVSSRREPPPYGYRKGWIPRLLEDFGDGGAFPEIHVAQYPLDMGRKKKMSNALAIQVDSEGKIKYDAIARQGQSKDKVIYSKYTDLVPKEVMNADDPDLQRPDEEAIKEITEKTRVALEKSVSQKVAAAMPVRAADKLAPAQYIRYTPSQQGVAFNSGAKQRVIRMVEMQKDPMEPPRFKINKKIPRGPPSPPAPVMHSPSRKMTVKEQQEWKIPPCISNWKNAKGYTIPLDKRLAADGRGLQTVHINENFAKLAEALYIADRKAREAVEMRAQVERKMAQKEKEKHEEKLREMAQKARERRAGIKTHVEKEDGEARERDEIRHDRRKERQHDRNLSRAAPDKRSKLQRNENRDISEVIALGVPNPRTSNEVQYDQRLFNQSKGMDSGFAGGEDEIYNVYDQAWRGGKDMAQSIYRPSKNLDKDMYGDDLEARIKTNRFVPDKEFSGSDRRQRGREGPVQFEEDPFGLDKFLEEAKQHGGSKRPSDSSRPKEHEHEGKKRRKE
Briefly: co-IP; COS-7 cells co-transfected with pCMV-AR and SKIP-pCGN, with or without 1 nM DHT; RIPA lysates, precipitated with rabbit anti-AR (N20) or rabbit anti-HA and protein G-Sepharose, 4°C; blotted for HA or AR.

Assay [3] concerns the target androgen receptor, full-length wild type (pCMV-AR) (human) (UniProt P10275). The description is as above.

These are yes or no findings as the source states them, for the method shown. Binding seen in cells or lysates may run through a third protein. Some binding calls cover weakened binding; strength is not graded here. Sequences can lack the tags named with a protein.

As for “AR-ECFP (AR-pECFP-N1) (from UniProt P10275 1-920) (receptor)”, the binding result in assay [1] was “binds”. In the case of “androgen receptor, full-length wild type (pCMV-AR) (from UniProt P10275 1-920)”, the binding result in assay [2] is on record as “binds”.

B1: HA-tagged Ski-interacting protein (SKIP-pCGN) (natural protein, human, UniProt Q13573 1-536, looked up)
chain: MALTSFLPAPTQLSQDQLEAEEKARSQRSRQTSLVSSRREPPPYGYRKGWIPRLLEDFGDGGAFPEIHVAQYPLDMGRKKKMSNALAIQVDSEGKIKYDAIARQGQSKDKVIYSKYTDLVPKEVMNADDPDLQRPDEEAIKEITEKTRVALEKSVSQKVAAAMPVRAADKLAPAQYIRYTPSQQGVAFNSGAKQRVIRMVEMQKDPMEPPRFKINKKIPRGPPSPPAPVMHSPSRKMTVKEQQEWKIPPCISNWKNAKGYTIPLDKRLAADGRGLQTVHINENFAKLAEALYIADRKAREAVEMRAQVERKMAQKEKEKHEEKLREMAQKARERRAGIKTHVEKEDGEARERDEIRHDRRKERQHDRNLSRAAPDKRSKLQRNENRDISEVIALGVPNPRTSNEVQYDQRLFNQSKGMDSGFAGGEDEIYNVYDQAWRGGKDMAQSIYRPSKNLDKDMYGDDLEARIKTNRFVPDKEFSGSDRRQRGREGPVQFEEDPFGLDKFLEEAKQHGGSKRPSDSSRPKEHEHEGKKRRKE
As to B1, the binding entry in assay [3] is on record as “binds”.
